These are yes or no findings as the source states them, for the method shown. Some results given as binding are weak or reduced against the parent protein; the word gives no strength. Where a sequence is shown, tags or fusion partners need not be part of it.
Target: NKG2D-based chimeric activating receptor NKAR (human)
Experiment: flow cytometry, His-tagged sMICA on NKAR-NK-92 cells, anti-His-tag detection

B1: recombinant His-tagged human MICA (ligand, UniProt Q29983 24-307, looked up, not shown: small tags and cut ends)
chain: EPHSLRYNLTVLSWDGSVQSGFLTEVHLDGQPFLRCDRQKCRAKPQGQWAEDVLGNKTWDRETRDLTGNGKDLRMTLAHIKDQKEGLHSLQEIRVCEIHEDNSTRSSQHFYYDGELFLSQNLETKEWTMPQSSRAQTLAMNVRNFLKEDAMKTKTHYHAMHADCLQELRRYLKSGVVLRRTVPPMVNVTRSEASEGNITVTCRASGFYPWNITLSWRQDGVSLSHDTQQWGDVLPDGNGTYQTWVATRICQGEEQRFTCYMEHSGNHSTHPVPSGKVLVLQSHW
For B1, the binding was “binds”.

From US20240174768A1
